Structures can show the parent of a compound that is named as a salt. In all, about 1,200 compounds went through this assay and about 50 (4%) showed activity. Cut-off read from the data, not from the text of the source: all actives reach 1.3 or more but so do some inactives. The list shows a part of the results.

The assay deals with Lgr5 (MarsCy1-Lgr5-EGFP, U2OS). Briefly: cell-surface Lgr5 expression (SCi1 fluorescence, background-subtracted) relative to WT DMSO (fold of DMSO control); higher = more Lgr5 at the plasma membrane, active = hit call of the paper. The following applies: U2OS MarsCy1-Lgr5-EGFP stable; treatment time: overnight; 16 µM; library: Johns Hopkins Clinical Compound Library.
On to `CC(C)NCC1CCc2cc(CO)c([N+](=O)[O-])cc2N1` (centres undefined) [Oxamniquine], for which the “cell-surface Lgr5 expression” value was inactive: 1.14.
As to `O=C1[C@H](CC[C@H](O)c2ccc(F)cc2)[C@@H](c2ccc(O)cc2)N1c1ccc(F)cc1` [Ezetimibe], the “cell-surface Lgr5 expression” value was inactive: 0.86.
Turning to `Cc1ccccc1CNc1ncnc2c1ncn2[C@@H]1O[C@H](CO)[C@@H](O)[C@H]1O` [Metrifudil], the “cell-surface Lgr5 expression” value was inactive: 0.972.
The figure for `CN1CCN(c2c(F)cc3c(=O)c(C(=O)O)cn4c3c2SCC4)CC1` [Rufloxacin HCl] is inactive: 0.886; for `CCCC(=O)[O-].[Na+]` [Sodium butyrate (N-butyric acid)] it is inactive: 1.01.
With `COC(=O)C1=C(C)NC(C)=C(C(=O)OCC(C)C)C1c1ccccc1[N+](=O)[O-]` (centres undefined) [Nisoldipine] the figure was inactive: 0.556; with `CN(C)CCOC(c1ccc(Cl)cc1)c1ccccn1` (centres undefined) [Carbinoxamine], inactive: 1.21.
On to `CCCCCCCCCCCCCC(=O)O` [Myristic acid], for which the “cell-surface Lgr5 expression” value is inactive: 1.03.
For `O=C1C(O)=C([C@H]2CC[C@H](c3ccc(Cl)cc3)CC2)C(=O)c2ccccc21` [Atovaquone], the “cell-surface Lgr5 expression” value is inactive: 1.33.
In the case of `Cc1ccccc1C(OCCN(C)C)c1ccccc1` (centres undefined) [Orphenadrine citrate], the “cell-surface Lgr5 expression” value was inactive: 1.36.
With `CC[N+](CC)(CC)CCOc1cccc(OCC[N+](CC)(CC)CC)c1OCC[N+](CC)(CC)CC` [Gallamine triethiodide] the figure was inactive: 1.15.
With `NCc1ccc(S(N)(=O)=O)cc1` [Mafenide (p-aminomethylbenzenesulfonamide)] the figure was inactive: 0.912.
With `CCc1oc2ccccc2c1C(=O)c1cc(Br)c(O)c(Br)c1` [Benzbromarone] the figure was inactive: 0.991.
As to `CC/C(=C(\c1ccccc1)c1ccc(OCCN(C)C)cc1)c1ccccc1` [Tamoxifen], the “cell-surface Lgr5 expression” value was inactive: 1.07.
The figure for `CC(=O)Nc1ccc(C(=O)O)cc1` [Acedoben (4-Acetamidobenzoic acid)] is inactive: 1.03; for `CCOc1ccc(NC(C)=O)cc1` [Phenacetin (acetophenetidin)] it is inactive: 1.24; for `CN1CCC[C@@H]1CCO[C@](C)(c1ccccc1)c1ccc(Cl)cc1` [Clemastine] it is inactive: 1.12.
Turning to `CO[Si](C)(C)O[Si](C)(C)C.O=[Si]=O` [Simethicone (40mg/0.6mL)], the “cell-surface Lgr5 expression” value was inactive: 1.21.
For the compound `NC(Cc1c[nH]c2ccc(O)cc12)C(=O)O` (racemic) [5-hydroxy-DL-Tryptophan], the “cell-surface Lgr5 expression” value was inactive: 0.953.
Regarding `COc1ccc(C(=O)c2ccccc2O)c(O)c1` [Dioxybenzone (2,2'-Dihydroxy-4-methoxybenzophenone)], the “cell-surface Lgr5 expression” value is inactive: 0.985.
As for `COc1ccc(CN2CCN(C(c3ccc(F)cc3)c3ccc(F)cc3)CC2)c(OC)c1OC` [Lomerizine HCl], the “cell-surface Lgr5 expression” value was inactive: 1.15.
The figure for `CC(C)Cc1ccc(C(C)C(=O)O)cc1` (centres undefined) [Ibuprofen] is inactive: 0.932; for `C[N+](C)([O-])CCCN1c2ccccc2CCc2ccccc21` [Imipraminoxide (Imipramine n-oxide)] it is inactive: 1.03.
For the compound `N.N.O=P(O)(O)O` [Ammonium phosphate dibasic], the “cell-surface Lgr5 expression” value is inactive: 0.953.
The figure for `CC1=C(C/C=C(\C)CCC[C@H](C)CCC[C@H](C)CCCC(C)C)C(=O)c2ccccc2C1=O` [Vitamin K1 (Phylloquinone, phytonadione)] is inactive: 0.865; for `O=C(O)CCc1cc(I)c(Oc2ccc(O)c(I)c2)c(I)c1` [Thyropropic acid (3,3',5-triiodothyropropionic acid)] it is inactive: 0.877.
Consider `Nc1ccc(S(=O)(=O)Nc2ccccn2)cc1` [Sulfapyridine], for which the “cell-surface Lgr5 expression” value is inactive: 0.968.
With `Nc1ccn([C@@H]2O[C@H](CO)[C@@H](O)[C@@H]2O)c(=O)n1` [Cytarabine (Cytosine 1-b-D-arabinofuranoside)] the figure was inactive: 0.815.
With `COc1ccnc(C[S+]([O-])c2nc3cc(OC(F)F)ccc3[nH]2)c1OC` (centres undefined) [Pantoprazole] the figure was inactive: 1.01; with `C[C@@H]1C[C@H]2[C@@H]3C[C@H](F)C4=CC(=O)C=C[C@]4(C)[C@@]3(F)[C@@H](O)C[C@]2(C)[C@@]1(O)C(=O)COC(=O)C(C)(C)C` [Flumethasone pivalate], active: 1.37; with `C[N+](C)(C)[C@@H](Cc1c[nH]c(=S)[nH]1)C(=O)[O-]` [Ergothioneine], inactive: 0.399.
The figure for `O=c1ccc2ccccc2o1` [Coumarin] is inactive: 0.988; for `CN(C)CCCN1c2ccccc2Sc2ccc(Cl)cc21` [Chlorpromazine] it is inactive: 0.872; for `COc1ccc(CC2c3cc(OC)c(OC)cc3CC[N+]2(C)CCC(=O)OCCCCCOC(=O)CC[N+]2(C)CCc3cc(OC)c(OC)cc3C2Cc2ccc(OC)c(OC)c2)cc1OC` (centres undefined) [Atracurium besylate] it is inactive: 0.941.
For the compound `CC(=O)[C@H]1CC[C@H]2[C@@H]3CC=C4C[C@@H](O)CC[C@]4(C)[C@H]3CC[C@]12C` [PREGNENOLONE (5-Pregnen-3B-ol-20-one)], the “cell-surface Lgr5 expression” value was inactive: 0.861.
With `O=CC(O)C(O)C(O)C(O)CO` (centres undefined) [Glucose (D)] the figure was inactive: 1.02; with `O=P([O-])([O-])[O-].O=P([O-])([O-])[O-].[Mg+2].[Mg+2].[Mg+2]` [Magnesium phosphate hydrate], inactive: 0.899; with `CC(C)(C)c1ccc(C(O)CCCN2CCC(C(O)(c3ccccc3)c3ccccc3)CC2)cc1` (centres undefined) [Terfenadine], inactive: 1.28.
The figure for `O=c1[nH]c(=O)n([C@H]2C[C@H](O)[C@@H](CO)O2)cc1Br` is inactive: 1.25; for `CCCCC1(COC(=O)CCC(=O)O)C(=O)N(c2ccccc2)N(c2ccccc2)C1=O` [Suxibuzone] it is inactive: 1.14.
As for `COc1cc(NC(C)CCCN)c2ncccc2c1` (centres undefined) [Primaquine], the “cell-surface Lgr5 expression” value is inactive: 0.511.
Take `CCCCNc1c(C(=O)OCC)c(C)nc2c1cnn2CC` [Tracazolate]: the “cell-surface Lgr5 expression” value was inactive: 0.998.
As to `CC[N+](CC)(CC)CC(=O)Nc1c(C)cccc1C` [Lidocaine N-ethyl bromide], the “cell-surface Lgr5 expression” value is active: 1.39.
In the case of `COc1cc(-c2ccc(=O)[nH]n2)ccc1OC(F)F` [Zardaverine], the “cell-surface Lgr5 expression” value is inactive: 0.72.
On to `Cl.N=C(N)NCCC[C@H](N)C(=O)O` [L-Arginine hydrochloride], for which the “cell-surface Lgr5 expression” value is inactive: 0.829.
On to `CC1=C(/C=C/C(C)=C/C=C/C(C)=C\C(=O)O)C(C)(C)CCC1` [Isotretinoin (13-cis-retinoic acid)], for which the “cell-surface Lgr5 expression” value is inactive: 1.08.
The figure for `CN(C)CCOC(C)(c1ccccc1)c1ccc(Cl)cc1` (centres undefined) [Chlorphenoxamine hydrochloride] is inactive: 1.15; for `O=C([O-])[O-].[Li+].[Li+]` [Lithium carbonate] it is inactive: 0.278.
As for `Cc1cc(NS(=O)(=O)c2ccc(N)cc2)nc(C)n1` [Sulfisomidine], the “cell-surface Lgr5 expression” value was inactive: 1.33.
Take `CCCCCCCCCCCCCCCCOP(=O)([O-])OCC[N+](C)(C)C` [Miltefosine (hexadecyl phosphocholine)]: the “cell-surface Lgr5 expression” value is inactive: 1.05.
For `CN(C)c1ccc(O)c2c1C[C@H]1C[C@H]3[C@H](N(C)C)C(O)=C(C(N)=O)C(=O)[C@@]3(O)C(O)=C1C2=O` [Minocycline hydrochloride salt], the “cell-surface Lgr5 expression” value is inactive: 0.437.
Take `C[N+](C)(C)CCOC(=O)CCC(=O)OCC[N+](C)(C)C` [Succinylcholine chloride dihydrate]: the “cell-surface Lgr5 expression” value was inactive: 1.22.
With `Nc1nc(NC2CC2)c2ncn([C@H]3C=C[C@@H](CO)C3)c2n1` [Abacavir] the figure was inactive: 1.08; with `CCN(CC)CCNc1ccc(CO)c2sc3ccccc3c(=O)c12` [Hycanthone], inactive: 1.28; with `CNC(C)CCC=C(C)C` (centres undefined) [Isometheptene mucate], inactive: 0.732.
On to `CC(C)(C)CC(C)(C)c1ccc(O)c(Cc2ccc(Cl)cc2Cl)c1` [Clofoctol], for which the “cell-surface Lgr5 expression” value was inactive: 1.06.
The figure for `OC(CCCN1CCCCC1)(c1ccccc1)c1ccccc1` [Diphenidol] is inactive: 1.13.
In the case of `OC(CCCN1CCCCC1)(c1ccccc1)c1ccccc1` [Difenidol hydrochloride (Diphenidol)], the “cell-surface Lgr5 expression” value is inactive: 1.08.
Consider `C[C@]12CC[C@@H]3c4ccc(OS(=O)(=O)O)cc4CC[C@H]3[C@@H]1CCC2=O` [Estrone-3-sulfate], for which the “cell-surface Lgr5 expression” value is inactive: 0.885.
The figure for `CCCCCCCCCCCC[N+](C)(C)CCOc1ccccc1` [Domiphen bromide] is inactive: 0.864; for `C=CCSCC1Nc2cc(Cl)c(S(N)(=O)=O)cc2S(=O)(=O)N1` (centres undefined) [Althiazide] it is inactive: 1.27.
With `Cc1cc(-c2ccc(/N=N/c3ccc4c(S(=O)(=O)O)cc(S(=O)(=O)O)c(N)c4c3O)c(C)c2)ccc1/N=N/c1ccc2c(S(=O)(=O)O)cc(S(=O)(=O)O)c(N)c2c1O` [Evans blue] the figure was inactive: 1.18.
The figure for `c1ccc(CN(CC2=NCCN2)c2ccccc2)cc1` [Antazoline phosphate salt] is inactive: 1.28; for `c1ccc(CN(CC2=NCCN2)c2ccccc2)cc1` [Antazoline] it is inactive: 1.21.
Turning to `CN(C)CC/C=C1/c2ccccc2COc2ccc(CC(=O)O)cc21` [Olopatadine hydrochloride ophthalmic solution], the “cell-surface Lgr5 expression” value was inactive: 0.992.
As to `CC(=O)Nc1ccc(OC(C)(C)C)cc1` [Butacetin (4-Butoxyacetanilide)], the “cell-surface Lgr5 expression” value was inactive: 1.28.
For `CCOC(C)OCC` [Acetal], the “cell-surface Lgr5 expression” value is inactive: 1.06.
With `CC(=O)OCC(=O)[C@H]1CC[C@H]2[C@@H]3CCC4=CC(=O)CC[C@]4(C)[C@H]3CC[C@]12C` the figure was inactive: 1.01; with `N=C(N)NCCN1CCCCCCC1` [Guanethidine], inactive: 0.924.

These data come from the supplement of paper PMC4683952.
